Measurements reported in PMC11565642, “ATP-Triggered Fe(CN)2CO Synthon Transfer from the Maturase HypCD to the Active Site of Apo-[NiFe]-Hydrogenase” (Journal of the American Chemical Society, 2024).
No constants are given. Whether binding was seen depends on the method and setting. For some assays here: Binding seen in cells or lysates may run through a third protein. Some entries that bind do so weakly or less than the wild type. Where a sequence is shown, tags or fusion partners need not be part of it.

T1: HypC from Escherichia coli with a C-terminal hexa-His affinity tag (Escherichia coli) (UniProt P0AAM3)
T1 sequence: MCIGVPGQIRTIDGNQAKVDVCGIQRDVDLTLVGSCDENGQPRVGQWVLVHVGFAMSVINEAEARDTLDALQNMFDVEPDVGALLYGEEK

T2: HypC_(Strep) (HypC from Escherichia coli with Strep-tag II C-terminally fused) (Escherichia coli) (UniProt P0AAM3)
T2 sequence: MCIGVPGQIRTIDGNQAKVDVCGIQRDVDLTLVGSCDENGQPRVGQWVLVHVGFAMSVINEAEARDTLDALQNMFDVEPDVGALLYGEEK


What was measured:
[1] = target: T1, HypC from Escherichia coli with a C-terminal hexa-His affinity tag (Escherichia coli); assay: pull-down; HisPur Ni-NTA affinity chromatography by the hexa-His tag on HypC from soluble extract of E. coli producing holo-HypCH-D; 4 °C; UV-vis and IR spectra of the isolated complex
[2] = target: T2, HypC_(Strep) (HypC from Escherichia coli with Strep-tag II C-terminally fused) (Escherichia coli); assay: SEC; holo-HypCS-D after Strep-Tactin affinity chromatography, Superdex 200 Increase 10/300 GL; oligomers separated from the HypCD complex; both purified

| Binder | binding [1] | binding [2] |
| --- | --- | --- |
| HypD from Escherichia coli (protein, UniProt P24192 1-373) MRFVDEYRAPEQVMQLIEHLRERASHLSYTAERPLRIMEVCGGHTHAIFKFGLDQLLPENVEFIHGPGCPVCVLPMGRIDTCVEIASHPEVIFCTFGDAMRVPGKQGSLLQAKARGADVRIVYSPMDALKLAQENPTRKVVFFGLGFETTMPTTAITLQQAKARDVQNFYFFCQHITLIPTLRSLLEQPDNGIDAFLAPGHVSMVIGTDAYNFIASDFHRPLVVAGFEPLDLLQGVVMLVQQKIAAHSKVENQYRRVVPDAGNLLAQQAIADVFCVNGDSEWRGLGVIESSGVHLTPDYQRFDAEAHFRPAPQQVCDDPRARCGEVLTGKCKPHQCPLFGNTCNPQTAFGALMVSSEGACAAWYQYRQQESEA | binds |  |
| HypE (protein, UniProt P24193 1-336) MNNIQLAHGSGGQAMQQLINSLFMEAFANPWLAEQEDQARLDLAQLVAEGDRLAFSTDSYVIDPLFFPGGNIGKLAICGTANDVAVSGAIPRYLSCGFILEEGLPMETLKAVVTSMAETARAAGIAIVTGDTKVVQRGAVDKLFINTAGMGAIPANIHWGAQTLTAGDVLLVSGTLGDHGATILNLREQLGLDGELVSDCAVLTPLIQTLRDIPGVKALRDATRGGVNAVVHEFAAACGCGIELSEAALPVKPAVRGVCELLGLDALNFANEGKLVIAVERNAAEQVLAALHSHPLGKDAALIGEVVERKGVRLAGLYGVKRTLDLPHAEPLPRIC |  | binds |
